{"source": "paper PMC2074394", "about": "(British Journal of Cancer, 1996); as to PKC inhibition, potency (Table III summary): key: +: potent effect; (+): weak effect; -: no effect; as to PKC inhibition, specificity (Table III summary): key: +: potent effect; (+): weak effect; -: no effect", "key": {"MCF-7/Adr cells": {"tested_on": "MCF-7/Adr cells", "experiment": "Inhibition of growth of multidrug-resistant MCF-7/Adr cells, without or with reserpine", "assay_type": "cell-based", "conditions": "Homo sapiens, NCI/ADR-RES, 96 h; 4 days incubation; without reserpine"}, "PKC": {"tested_on": "PKC", "conditions": "cited from earlier work"}}}
{"smiles": "CO[C@@H]1[C@H](N(C)C(=O)c2ccccc2)C[C@H]2O[C@]1(C)n1c3ccccc3c3c4c(c5c6ccccc6n2c5c31)C(=O)NC4", "note": "[CGP 41251, 4'-N-benzoyl staurosporine]", "values": [{"measurement": "IC50", "setting": "MCF-7/Adr cells", "value": 283, "unit": "nM"}, {"measurement": "PKC inhibition, specificity (Table III summary)", "setting": "PKC", "value": "+"}, {"measurement": "PKC inhibition, potency (Table III summary)", "setting": "PKC; ref Courage et al., 1995", "value": "+"}]}
